Publication PMC11093817

The chains behind the UniProt entries cited, without tags or fusion partners. Residues count along the entry.
UniProt Q9SPU7, 229-580: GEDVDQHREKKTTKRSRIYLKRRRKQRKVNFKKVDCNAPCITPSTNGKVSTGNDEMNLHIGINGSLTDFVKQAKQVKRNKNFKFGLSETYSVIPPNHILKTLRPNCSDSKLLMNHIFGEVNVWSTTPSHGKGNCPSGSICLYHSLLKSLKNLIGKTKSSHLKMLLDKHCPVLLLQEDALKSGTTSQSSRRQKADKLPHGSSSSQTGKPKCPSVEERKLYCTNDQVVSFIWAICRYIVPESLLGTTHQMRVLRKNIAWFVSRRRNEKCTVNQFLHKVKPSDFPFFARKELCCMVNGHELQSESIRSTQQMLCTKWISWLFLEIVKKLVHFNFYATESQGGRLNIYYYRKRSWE
UniProt Q9SPU7, 320-580: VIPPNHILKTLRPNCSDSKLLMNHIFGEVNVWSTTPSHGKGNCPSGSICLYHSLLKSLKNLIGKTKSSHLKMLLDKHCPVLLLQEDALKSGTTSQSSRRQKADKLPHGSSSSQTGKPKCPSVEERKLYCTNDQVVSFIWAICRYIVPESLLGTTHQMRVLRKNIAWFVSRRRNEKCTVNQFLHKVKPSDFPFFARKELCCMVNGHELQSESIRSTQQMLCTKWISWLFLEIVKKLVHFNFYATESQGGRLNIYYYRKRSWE

What was measured:
[1] = target: AtTERT aa229-580 (unstructured linker + TRBD) (Arabidopsis thaliana) (UniProt Q9SPU7); assay: EMSA; conditions: 40 nM RNA, 0-400 nM protein; EMSA: 50 mM Tris-HCl (pH not stated), 250 mM NaCl, 10 mM potassium acetate, 3% glycerol added before loading; 20 min at room temperature; recombinant protein; residues 229-580; label: none (Sybr Green II stain); probe letters rebuilt from the primers and the genome; part of a longer molecule
[2] = target: AtTERT aa320-580 (N-terminally truncated TRBD) (Arabidopsis thaliana) (UniProt Q9SPU7); assay: EMSA; conditions: 40 nM RNA, 0-400 nM protein, no mobility change; EMSA: 50 mM Tris-HCl (pH not stated), 250 mM NaCl, 10 mM potassium acetate, 3% glycerol added before loading; 20 min at room temperature; recombinant protein; residues 320-580; label: none (Sybr Green II stain); probe letters rebuilt from the primers and the genome; part of a longer molecule

Q: What does the source list for “AAGGGGUGUGGGAACCUAGGAGAUGAGUCUGCUUAUUGAUUGCUAAACCCUGAACCCUCUCAUGUUAACUAUGGGAAUUAAUUACUGGGGGUCUUAGGCCGGCGUUUCCCCCGAAAAAUAAUGAAAAAACGUCGAUGGCUACAUAAGAGGCUCGUCUCCAAAAAGUAGACCAGGAGGUUGGGUUUGGUUCGUAGGUGGUUCUGUUGAAACUAGAUUAGUGUCUGCGGUUAACCGUUUCCUCGCCUUACCCUCCCACCCCCAAA [AtTR full length (nts1-262)]”?
A: binding result [1]: binds; binding result [2]: no binding

For some assays here: Negatives hold for the conditions tested. For some assays here: For at least one entry, the source does not settle the construct or the ends of the probe.
